Values from PubChem BioAssay AID1224826 (NIAID, 2016)

- Purpose: 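Regulators of Tlr4 signalling leading to Tnf-alpha expression in macrophages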 (primary screen)
- System: RAW264.7 G9 macrophages from mouse bearing reporters for p65 (GFP) and the Tnf promoter (mCherry)
- Knock-down reagent: siRNA pool against mouse genes, 100 nM
- Time to read-out: 16 h of LPS stimulation, after 2 days of siRNA transfection
- Conditions: bacterial lipopolysaccharide (Salmonella minnesota R595), 10 ng/ml
- Read-out: 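Nuclear mCherry signal of the Tnf promoter reporter measured by imaging after background removal, scaled to each plate median and turned into robust z-scores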
- Scale: Tnf reporter robust z-score: higher = stronger Tnf promoter reporter signal after LPS; Tnf reporter intensity: higher = stronger Tnf promoter reporter signal
- Hit rule: 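a well counts as active at a score of -1.3 or below (Tlr4 knock-down control median) or above 3 (raised signal); controls and wells holding fewer than 50 cells are excluded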
- Calls: active = Tnf reporter clearly lowered or raised; inactive = no clear change in Tnf reporter
Shown is one part, drawn at random, of about 17,000 reagents. Over the whole deposit, about 1,110 (6.6%) are marked active. 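Active means lowered or raised reporter signal; replicate intensities are raw and not normalised per plate.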 Entries without a mark were called inactive.

gene	Tnf reporter robust z-score	fewer than 50 cells in well	Tnf reporter intensity, replicate 1	Tnf reporter intensity, replicate 2
Porcn	0.12	enough cells in well	258	199
Srrm3	-0.3	enough cells in well	147	145
A430072C10Rik		fewer than 50 cells per well; well left out of calls	184	154
Rrp12	-0.23	enough cells in well	150	150
Pgc	-0.46	enough cells in well	78.7	110
Srst	1.4	enough cells in well	130	163
Or5p58	1.89	enough cells in well	168	184
Tfdp1	-0.07	enough cells in well	285	94.8
Akap8l	0.68	enough cells in well	185	234
Thoc1	-1.1	enough cells in well	133	93.5
Klhl4	1.1	enough cells in well	221	209
Or6n2	1.46	enough cells in well	120	210
Sugp1	-0.13	enough cells in well	105	87.7
Gdi1	-1	enough cells in well	210	119
Dnajc5g		fewer than 50 cells per well; well left out of calls	287	53.9
Mrps35	-0.9	enough cells in well	145	81.2
Zscan5b	2.84	enough cells in well	245	243
Hoxd8	-0.21	enough cells in well	219	177
Kdm4c	1	enough cells in well	236	190
Anapc16	0.44	enough cells in well	219	196
Sema4b	1.06	enough cells in well	159	114
Fcna	0.08	enough cells in well	243	229
Irak1bp1	-0.4	enough cells in well	186	101
Celsr3	-0.32	enough cells in well	139	357
